PubChem BioAssay AID686943 – Drosophila RNAi Screening Center, 2013
The screen tested about 23,000 reagents; below is an unselected part of those with a known target gene and a result. 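Extra replicates exist only for a retested subset of genes; insulin dose and duration not given; both raised and lowered dpERK matter.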 Not all columns of the deposit are shown. The record does not give: the amount of reagent, the time to read-out.

- Assay: 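Search across the genome for regulators of signalling from receptor tyrosine kinase to ERK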 (primary screen)
- Cells: Drosophila S2R+ haemocyte-like cells expressing YFP-tagged ERK (Rolled)
- Reagent: long dsRNA against Drosophila genes
- Challenge: insulin stimulation versus unstimulated cells; dose and duration not given
- Read-out: 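Antibody staining for doubly phosphorylated ERK divided by ERK-YFP signal, as plate z-scores, in insulin-treated and untreated cells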
- Reading the numbers: replicate 1, z-score of dpERK with insulin and replicate 2, z-score of dpERK with insulin: higher = more active ERK per ERK-YFP after insulin

Dnali1 [SID104195950]
- replicate 1, z-score of dpERK with insulin: -0.01
- replicate 2, z-score of dpERK with insulin: 0.22

Octbeta1R [SID104195926]
- replicate 1, z-score of dpERK with insulin: 1.25
- replicate 2, z-score of dpERK with insulin: 0.39

Inos [SID104187447]
- replicate 1, z-score of dpERK with insulin: 0.04
- replicate 2, z-score of dpERK with insulin: -0.28

CG11369 [SID104197571]
- replicate 1, z-score of dpERK with insulin: 0.26
- replicate 2, z-score of dpERK with insulin: 0.51

Cdc37 [SID104188440]
- replicate 1, z-score of dpERK with insulin: -0.94
- replicate 2, z-score of dpERK with insulin: 0.11

Ebp [SID104183840]
- replicate 1, z-score of dpERK with insulin: 0.25
- replicate 2, z-score of dpERK with insulin: -0.21

Ripalpha [SID104182449]
- replicate 1, z-score of dpERK with insulin: 0.4
- replicate 2, z-score of dpERK with insulin: -0.01

Rpn12R [SID104189634]
- replicate 1, z-score of dpERK with insulin: -1.55
- replicate 2, z-score of dpERK with insulin: -0.26

CG15375 [SID104197837]
- replicate 1, z-score of dpERK with insulin: 0.99
- replicate 2, z-score of dpERK with insulin: 1.33

CG10694 [SID104194055]
- replicate 1, z-score of dpERK with insulin: -0.69
- replicate 2, z-score of dpERK with insulin: 0

In a second layout: 2 of the entries above
target,PubChem SID,"replicate 1, z-score of dpERK with insulin","replicate 2, z-score of dpERK with insulin"
CG11369,SID104197571,0.26,0.51
Cdc37,SID104188440,-0.94,0.11

The results go on:
CG9368 [SID104190859]
- replicate 1, z-score of dpERK with insulin: 1.96
- replicate 2, z-score of dpERK with insulin: 1.33

HP1Lcsd [SID104183791]
- replicate 1, z-score of dpERK with insulin: 0.52
- replicate 2, z-score of dpERK with insulin: 0.26

Lap1 [SID104187246]
- replicate 1, z-score of dpERK with insulin: -1.36
- replicate 2, z-score of dpERK with insulin: 0.24

CG2871 [SID104198022]
- replicate 1, z-score of dpERK with insulin: 1.14
- replicate 2, z-score of dpERK with insulin: 0.27

CG2871 [SID104201392]
- replicate 1, z-score of dpERK with insulin: -0.06
- replicate 2, z-score of dpERK with insulin: -0.09

wus [SID104200070]
- replicate 1, z-score of dpERK with insulin: 0.41
- replicate 2, z-score of dpERK with insulin: 0.42

CG8043 [SID104196160]
- replicate 1, z-score of dpERK with insulin: 0.57
- replicate 2, z-score of dpERK with insulin: -0.22

Stt3A [SID104200306]
- replicate 1, z-score of dpERK with insulin: 0.35
- replicate 2, z-score of dpERK with insulin: 0.39

Gr98a [SID104194511]
- replicate 1, z-score of dpERK with insulin: -0.59
- replicate 2, z-score of dpERK with insulin: -1.7

CG13244 [SID104201334]
- replicate 1, z-score of dpERK with insulin: -0.05
- replicate 2, z-score of dpERK with insulin: 0.68

CG1958 [SID104197988]
- replicate 1, z-score of dpERK with insulin: -0.4
- replicate 2, z-score of dpERK with insulin: 0.09

Polr2K [SID104185327]
- replicate 1, z-score of dpERK with insulin: 3.13
- replicate 2, z-score of dpERK with insulin: 1.54

NKCC [SID104191932]
- replicate 1, z-score of dpERK with insulin: -0.76
- replicate 2, z-score of dpERK with insulin: 0.43

NKCC [SID104192103]
- replicate 1, z-score of dpERK with insulin: -0.04
- replicate 2, z-score of dpERK with insulin: 0.85

CG15597 [SID104192075]
- replicate 1, z-score of dpERK with insulin: 0.93
- replicate 2, z-score of dpERK with insulin: 0.03

CG17019 [SID104186434]
- replicate 1, z-score of dpERK with insulin: -0.23
- replicate 2, z-score of dpERK with insulin: -0.46

Cyp4ac2 [SID104183095]
- replicate 1, z-score of dpERK with insulin: 0.62
- replicate 2, z-score of dpERK with insulin: 0.12

Ote [SID104187290]
- replicate 1, z-score of dpERK with insulin: 0.16
- replicate 2, z-score of dpERK with insulin: -0.33

CG7627 [SID104182857]
- replicate 1, z-score of dpERK with insulin: 0.2
- replicate 2, z-score of dpERK with insulin: 0.14

CG17598 [SID104200428]
- replicate 1, z-score of dpERK with insulin: -1.04
- replicate 2, z-score of dpERK with insulin: -0.4

CG12123 [SID104197610]
- replicate 1, z-score of dpERK with insulin: 0.02
- replicate 2, z-score of dpERK with insulin: 0.06
